# Percent effect of library compounds

The chains behind the UniProt entries cited, without tags or fusion partners.
UniProt P9WPC5, whole entry: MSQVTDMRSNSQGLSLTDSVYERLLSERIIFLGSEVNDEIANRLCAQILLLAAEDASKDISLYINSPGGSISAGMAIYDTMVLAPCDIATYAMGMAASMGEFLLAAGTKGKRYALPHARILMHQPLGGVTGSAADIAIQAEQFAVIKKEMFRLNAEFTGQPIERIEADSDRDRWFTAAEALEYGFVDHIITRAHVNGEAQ
UniProt P9WPC3, whole entry partner: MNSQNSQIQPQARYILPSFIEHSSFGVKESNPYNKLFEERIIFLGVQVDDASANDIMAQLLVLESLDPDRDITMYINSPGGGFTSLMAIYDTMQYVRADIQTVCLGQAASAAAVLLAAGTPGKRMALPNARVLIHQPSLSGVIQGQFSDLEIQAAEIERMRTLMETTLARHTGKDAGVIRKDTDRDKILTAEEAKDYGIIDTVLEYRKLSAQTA
UniProt P9WNZ1, whole entry: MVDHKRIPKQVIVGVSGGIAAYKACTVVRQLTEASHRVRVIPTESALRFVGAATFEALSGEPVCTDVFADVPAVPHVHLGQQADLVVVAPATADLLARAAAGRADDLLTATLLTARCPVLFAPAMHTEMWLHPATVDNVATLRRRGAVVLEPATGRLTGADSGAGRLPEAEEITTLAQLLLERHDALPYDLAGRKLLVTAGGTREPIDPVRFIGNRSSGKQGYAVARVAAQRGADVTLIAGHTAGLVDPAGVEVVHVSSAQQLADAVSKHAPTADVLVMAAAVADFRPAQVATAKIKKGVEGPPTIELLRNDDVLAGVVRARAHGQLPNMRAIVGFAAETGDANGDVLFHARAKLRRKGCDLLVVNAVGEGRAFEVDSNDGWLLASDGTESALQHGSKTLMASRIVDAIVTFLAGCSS

Results are given as percent effect. How 0% and 100% were set is not recorded. Most values in the screen are low, and negative values occur. Compounds were drawn at random from those tested, without regard to their results. A dash means the value is not listed here; it may have been measured.

A: 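ClpP1P2, Mycobacterium tuberculosis (UniProt P9WPC5 and UniProt P9WPC3). Protease assay of ClpP1P2, read by the AMC dye that it sets free. Concentration: 50 µM. Higher reads as stronger inhibition, judged from the few compounds that gave an IC50. Most other retested compounds had strongly negative values. About 69,000 compounds were tested under these conditions; 0.015% (about 10) showed 50% or more at least once.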
B: 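Coenzyme A biosynthesis protein CoaBC, Mycobacterium tuberculosis (UniProt P9WNZ1). Enzyme assay of CoaBC with a phosphate dye (Biomol Green) read at 650 nm. Tested at 30 µM. Direction is inferred from only a few compounds that gave an IC50; most scored high, so higher reads as stronger inhibition. Most strong results did not repeat in a second test. About 67,000 compounds were tested under these conditions; 0.06% (about 40) showed 50% or more at least once.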
C: 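Assay of Toxoplasma gondii numbers, read through their beta-galactosidase reporter with a colour substrate. Tested at 10 µM. Higher reads as fewer parasites (inferred from which compounds were picked for retests). Of about 67,000 compounds tested this way, about 260 (0.38%) reached 50% or more in at least one test.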

structure,A,B,C
Cn1nc(-c2ccc(Cl)cc2)c(Br)c1C(=O)O,-7.954,-1.263,6.983
CCC(=O)N1CCCC(C(=O)NCc2noc(Cc3ccccc3)n2)C1 (stereo not shown),-10.66,0.7426,13.9
O=C(NC[C@H]1OC[C@@H](NC2CCOCC2)[C@@H]1O)c1cccs1,-5.48,9.707,12.33
N#Cc1cccc(CN2CC3(CCCCN3c3cncnc3)CC2=O)c1 (stereo not shown),-4.84,-15.86,-
O=C(c1ccc(Cn2cnnn2)cc1)N1CCC(c2ccncc2)CC1,-9.874,-4.665,7.13
CN1CCC(c2cnc(NCc3nccn3C)cn2)CC1,-28.35,4.369,11.99
COC(=O)c1ccc(CN(C(C)C)C(C)C)o1,-7.45,-2.331,-
O=C(O)[C@]12CCCN(Cc3ccncc3)[C@@H]1CCN(c1cnccn1)C2,-12.81,1.786,-
CC(C)C(=O)N1CCCC2(CCCN2CC2CCCC2)C1.O=C(O)C(F)(F)F (stereo not shown),-,-,-9.013
Cc1nnc(NC(=O)NCc2ccnc(N(C)C)c2)s1,-9.963,-11.26,2.705
COc1ccc(N2CCN(C(=O)NC(C)c3nncn3C)CC2)cc1 (stereo not shown),-6.106,1.044,-11.11
O=C1C[C@H]2CC[C@@H](CN1)N2C(=O)CCc1ccccc1,-4.256,8.148,-
O=C(O)C(F)(F)F.O=C(O)C(F)(F)F.[H][C@@]12COC[C@]1(COc1ccccn1)CN(Cc1ccoc1)C2,-,-,0.8547
[H][C@@]12CN(C(=O)Cc3ccccn3)C[C@]1([H])[C@@H]2CC(=O)Nc1cccnc1,-,-,0.5319
[H][C@@]12COC[C@@H](CC(=O)NCCOC)[C@]1([H])CN(Cc1cccnc1)C2,-,-,-8.793
CC1CN(Cc2cccc(CN)c2)CCO1 (stereo not shown),-3.69,1.46,0.9598
CCCn1ncnc1C(C)NC(=O)C1CCN(CC(N)=O)CC1 (stereo not shown),-12.89,5.14,15.09
CCOc1ccc(CN2C(=O)CC(CC)(CC)C2=O)nc1,4.024,-8.779,3.333
COCc1cc(CNC(=O)c2c(C)cc(C)[nH]c2=O)n[nH]1,-0.4947,-3.371,-7.466
COc1cccc(CN(Cc2ncc[nH]2)Cc2ccco2)c1.O=C(O)CC(O)(CC(=O)O)C(=O)O,-,-,-29.64
Cc1nc(C)c(C)c(NCCSCc2[nH]cnc2C)n1,0.1888,-3.909,3.401

The first 3 entries again:

* Cn1nc(-c2ccc(Cl)cc2)c(Br)c1C(=O)O : A: -7.954%; B: -1.263%; C: 6.983%
* CCC(=O)N1CCCC(C(=O)NCc2noc(Cc3ccccc3)n2)C1 (stereo not shown) : A: -10.66%; B: 0.7426%; C: 13.9%
* O=C(NC[C@H]1OC[C@@H](NC2CCOCC2)[C@@H]1O)c1cccs1 : A: -5.48%; B: 9.707%; C: 12.33%

Measurements from “University of Dundee, Small-Polar-MMV Screening Library” (2021), ChEMBL document CHEMBL3988442.